We go through 1 molecule from US20200207835A1, “SRCP1-BASED THERAPY FOR DISEASES ASSOCIATED WITH PROTEIN AGGREGATION” (THE MEDICAL COLLEGE OF WISCONSIN, INC., priority 2017, published 2020).

This data set has as its system proteasome. The data set is described as follows: RFPSRCP1 turnover in HEK293 cells (western blot). The format is cell-based, human.

B1: SRCP1: Dictyostelium discoideum serine-rich chaperone protein 1 (SEQ ID NO:2), expressed in cells as RFP-tagged construct (protein)
chain: MTILSTFTSFSNPPKLNKSSFSSSTGSSLSMGSNSFAWGGGWGGFGGPKGGSFNVDIAGNLIWGVYGFIRGGVGLVKWRGLQKGCKQP
modifications: RFP tag; Dictyostelium discoideum AX4
Take B1: the RFPSRCP1 levels result is listed as “dramatic decrease in ^RFPSRCP1 levels” (HEK293, presence of GFPHttex1Q74) and “marked stabilization” (HEK293, proteasome inhibition (10 μM MG132, 18 hours)).
